The source of these data is the supplement of paper PMC4683952.

The list shows a part of the results. Cut-off read from the data, not from the text of the source: active = 2 or more and inactive = the rest. Single values are uncertain here, since repeats match poorly.

This assay concerns Lgr5 (MarsCy1-Lgr5-EGFP, U2OS). The experiment in a line: cell-surface Lgr5 expression (SCi1 fluorescence, background-subtracted) relative to WT DMSO (fold of DMSO control); higher = more Lgr5 at the plasma membrane. The settings on record: U2OS MarsCy1-Lgr5-EGFP stable; treatment time: overnight; library: ActiProbe-5K (TimTec); 25 µM.
For `CCc1ccc(-c2cn3c(n2)SCC3)cc1`, the “cell-surface Lgr5 expression” value is inactive: 1.47. As for `Clc1cc(/C=N\c2c3ccccc3nc3ccccc23)c2c(c1)COCO2`, the figure is inactive: 1.14; as for `Cn1c(SCc2ccon2)nc2sc3c(c2c1=O)CCC3`, inactive: 1.13; as for `COc1ccc(/C=N/Nc2nncn2N)cc1`, inactive: 1.43. On to `N#Cc1c(NC(=O)c2[nH]nc([N+](=O)[O-])c2Br)sc2c1CCC2`, for which the “cell-surface Lgr5 expression” value is inactive: 1.26. Under `c1ccc(CNCc2cn(Cc3ccccc3)c3ccccc23)cc1` stands inactive: 1.03. As for `O=C(O)c1ccc(=O)[nH]n1`, the figure is inactive: 0.952; as for `Nc1nonc1/C(=N\O)N1CCN(c2ccc([N+](=O)[O-])cc2Cl)CC1`, inactive: 1.16; as for `C(/C#N)(C#N)=C/Nc1cc(F)ccc1F`, inactive: 1.06. As for `Oc1ccc(Sc2ccc(O)cc2O)c(O)c1`, the figure is inactive: 0.879; as for `Nc1nnc(SCC(=O)NC2CCCC2)s1`, inactive: 1.22; as for `O=c1cnc2ccc(Br)cc2[nH]1`, inactive: 0.988. In the case of `CCCSc1nsc(SCCC)c1C(N)=O`, the “cell-surface Lgr5 expression” value was inactive: 1.25. Under `FC(F)(F)Oc1ccc(/N=C\c2ccc(Br)s2)cc1` stands inactive: 1.1; under `Cn1cc(-c2cc(C(=O)O)n[nH]2)cn1`, inactive: 1.49. As to `O=[N+]([O-])c1ccc(N/N=C/c2ccc3c(c2)OCO3)c(C(F)(F)F)c1`, the “cell-surface Lgr5 expression” value is inactive: 1.15. Under `CSc1nc(C)cc(O)n1` stands inactive: 0.985; under `O=[N+]([O-])c1cnn(-c2cnc3ncnn3c2)c1`, inactive: 1.38. As to `Oc1nc2ccccc2nc1O`, the “cell-surface Lgr5 expression” value was inactive: 1.35. Regarding `C/N=C1/C(=N/O)C=Cc2ccccc21`, the “cell-surface Lgr5 expression” value is inactive: 0.427. For `CCOC(=O)C1(N)CCC1.Cl`, the “cell-surface Lgr5 expression” value was inactive: 1.3. As for `c1coc(CSSCc2ccco2)c1`, the figure is inactive: 1.24.

On to `S=c1[nH]c2ccccc2s1`, for which the “cell-surface Lgr5 expression” value was inactive: 0.996. Under `Cc1ccc(-c2nnc(CSc3nccn3C)o2)o1` stands inactive: 1.13. For the compound `COc1cc(/C=N/n2c(S)nnc2-c2ccncc2)cc(OC)c1OC`, the “cell-surface Lgr5 expression” value is inactive: 1.23. On to `N#CC1=C(N)C(C#N)(C#N)C(c2ccc[nH]2)C2CCCC=C12` (configuration not stated), for which the “cell-surface Lgr5 expression” value was inactive: 0.821. Under `CCC1CCC2(CC1)Nc1ccccc1S2` (configuration not stated) stands inactive: 1.07. As for `O=C(O)CCc1ccco1`, the figure is inactive: 1.01; as for `C/C(Cn1nnc([N+](=O)[O-])n1)=N\Nc1c(Cl)cc(Cl)cc1Cl`, inactive: 1.06; as for `C#Cc1nc(NC(C)C)nc(NC(C)C)n1`, inactive: 1.05. As for `CC(CC1CC(C)(C)OC1=O)C(=O)Nc1nncs1` (configuration not stated), the “cell-surface Lgr5 expression” value was inactive: 1.24. As to `CC(C)C(CO)NC(=O)CC(=O)NC(CO)C(C)C` (configuration not stated), the “cell-surface Lgr5 expression” value is inactive: 1.11. As for `CN1CC(C(=O)N2CCc3ccccc32)CC1=O` (configuration not stated), the figure is inactive: 1.09. As for `Cc1c([N+](=O)[O-])c2nsnc2c2nsnc12`, the figure is inactive: 1.06; as for `CNCc1ccsc1.Cl`, inactive: 1.3.

As for `c1cc2c(cc1-n1cnnn1)OCO2`, the “cell-surface Lgr5 expression” value is inactive: 1.11. For the compound `CCn1cc(-c2csc(N)n2)cn1`, the “cell-surface Lgr5 expression” value was inactive: 1.2.

As for `c1ccc2nc(SCc3ccon3)c(SCc3ccon3)nc2c1`, the “cell-surface Lgr5 expression” value was active: 3.21.

On to `CCCCCCCCCS(=O)(=O)c1n[nH]c(N)n1`, for which the “cell-surface Lgr5 expression” value is inactive: 1.08. As for `O=C(O)C12CC3CC(C1)CC(n1cnc(Br)n1)(C3)C2`, the figure is inactive: 1.24; as for `O=S(=O)(c1ncn[nH]1)N1CCOCC1`, inactive: 0.967; as for `O=c1[nH]cnc2sc3c(c12)CCC3`, inactive: 1.06. As for `Cc1ncc(CO)c(CN)c1O.Cl`, the “cell-surface Lgr5 expression” value is inactive: 1.05. Regarding `c1cc(CSc2nc3ccccc3o2)nc(CSc2nc3ccccc3o2)c1`, the “cell-surface Lgr5 expression” value was inactive: 1.16. Take `O=C1CCCN1S(=O)(=O)c1ccc(Br)s1`: the “cell-surface Lgr5 expression” value was inactive: 1.17.

On to `O=c1ccc2cc(S(=O)(=O)NCC3CCCO3)ccc2o1` (configuration not stated), for which the “cell-surface Lgr5 expression” value is inactive: 1.02.

As to `c1ccc(CSc2nc3cccnc3[nH]2)nc1`, the “cell-surface Lgr5 expression” value is inactive: 0.906. Consider `O=c1c2ccccc2nc2ccccn12`, for which the “cell-surface Lgr5 expression” value was inactive: 1.12.

`C#CC[N+](C)(C)CC(=O)c1cccc2ccccc12.[Br-]`: the “cell-surface Lgr5 expression” value was inactive: 1.54. As for `Nc1cc(N)nc(SCc2ccc(Cl)c(Cl)c2)n1`, the figure is inactive: 0.999. As for `COc1ccc(C2Oc3ccccc3C3CC(c4ccccc4)=NN32)cc1` (configuration not stated), the figure is inactive: 0.736; as for `CC(C)(C)C(=O)CC1(O)Sc2ccccc2N=C1/C=C(/O)C(C)(C)C` (configuration not stated), inactive: 0.856. Under `CN(c1nc(N2CCOCC2)nc(N2CCOCC2)n1)n1cccc1` stands inactive: 1.01; under `OCCN(CCO)CC(O)C12CC3CC(CC(C3)C1)C2` (configuration not stated), inactive: 1.15; under `Cc1nc(CN2CCN(Cc3csc(C)n3)CC2)cs1`, inactive: 1.15.

For the compound `CC(=O)C(C)Sc1nc2c(c(C(F)(F)F)c1C#N)CCCCCC2` (configuration not stated), the “cell-surface Lgr5 expression” value was inactive: 1.24. Under `C1=CN(c2ccccc2)C(/C=N\Cc2ccccc2)=CS1` stands inactive: 0.967. As for `O=[N+]([O-])c1ccc2c(c1)ncn2C1CCCCC1`, the figure is inactive: 0.888.

For `CSc1ccc(/C=N\n2c(S)nnc2-c2ccccc2)cc1`, the “cell-surface Lgr5 expression” value was inactive: 0.969. For the compound `Fc1ccc(NC(=S)Nc2cccc3ccccc23)cc1`, the “cell-surface Lgr5 expression” value was inactive: 0.917.

As for `Cc1c(CNc2[nH]ncc2[N+](=O)[O-])cnn1C`, the “cell-surface Lgr5 expression” value is inactive: 1.21. Under `Cc1nc2ccccc2[nH]/c1=N\O` stands inactive: 1.05.

Take `Nc1n[nH]c(CC(=O)O)n1`: the “cell-surface Lgr5 expression” value was inactive: 1.14. As for `Cc1ccc(/C=N/n2c(C)nnc2C)o1`, the figure is inactive: 1.34. Under `Nc1nc2c(nc(N3CCOCC3)n2C2OC(CO)C(O)C2O)c(=O)[nH]1` (configuration not stated) stands inactive: 0.999; under `C/C(=N/O)c1no[n+]([O-])c1/C(C)=N\O`, inactive: 1.32.

Take `N#Cc1c(NC(=O)C(F)(F)F)sc2c1CCC2`: the “cell-surface Lgr5 expression” value is inactive: 1.07. Under `Fc1ccccc1OCCSc1nc2ccccc2o1` stands inactive: 1.07; under `Oc1nc(/C=C\c2ccc(Br)cc2)cc(/C=C\c2ccc(Br)cc2)n1`, inactive: 0.407; under `C=CCNc1sc(N)c(C#N)c1C(=O)c1ccc(Br)s1`, inactive: 1.24.

In the case of `Cc1ccc(C2=NNC(C(O)C(O)C(O)CO)S2)cc1` (configuration not stated), the “cell-surface Lgr5 expression” value is inactive: 0.985. As for `c1ccc(CSc2nn3c(SCc4ccccn4)nnc3s2)nc1`, the figure is inactive: 1.03.
